# From US20120116027A1, “PROCESS FOR THE PURIFICATION OF HUMAN GROWTH HORMONE POLYPEPTIDES USING AFFINITY RESINS COMPRISING SPECIFIC LIGANDS” (priority 2008, published 2012)
# Sequences of proteins named here, by UniProt entry; tags and fusion partners are left off. Residues count along the entry.
# UniProt P01241, 27-217: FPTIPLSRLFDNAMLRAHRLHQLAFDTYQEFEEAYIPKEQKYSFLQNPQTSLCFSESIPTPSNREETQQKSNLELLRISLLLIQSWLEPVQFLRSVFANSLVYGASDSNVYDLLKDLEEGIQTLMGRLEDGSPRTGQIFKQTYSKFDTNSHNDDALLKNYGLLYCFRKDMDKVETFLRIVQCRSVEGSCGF
# At least one read-out could not be matched to a standard name with certainty.
# How the values were obtained:
# hGH [1] = target: T1, hGH (Homo sapiens, UniProt P01241); assay: Affinity purification of hGH from E. coli micro-filtrate with ligand L10 resin (purity and recovery); details: load 50 mM BisTris-HCl pH 6.25
# T1 construct: made in house; host or cells: E. coli
# Description: Ligand L10 from Example 1 was synthesized step-wise on Fractogel Amino M (Supplied by Merck KgaA), and the resulting affinity resin was packed in Tricorn 5/50, 1 mL (GE Healthcare).
# hGH micro-filtrate buffer: 2.61 mg/mL hGH E. coli micro-filtrate from hGH harvest. A frozen 15 mL sample was thawed at room temperature and filtered using a syringe-driven filter ([…]). Diluted to 0.52 mg hGH/mL with Buffer A.
# An elution buffer of 200 mM Tris-HCl, pH 8.00, 1 M NaCl, 30% propylene glycol results in high recovery of hGH. This elution buffer and the aforementioned 50 mM BisTris-HCl, pH 6.5 load buffer was used. The column was overloaded with hGH. The results from an experiment using these conditions are shown below:
# The loading buffer was changed to 50 mM BisTris-HCl at pH 6.25 and different elution buffers at pH 7.25, 7.50 and 8.00 were tested.
# Chromatograms and gels are shown in FIG. 8 for the run with the following conditions: Load buffer: 50 mM BisTris at pH 6.25 and Elution buffer: 50 mM BisTris at pH 8.00
# hGH [2] = target: T1, hGH; assay: Evaluation of ligand synthesized directly on Fractogel in 5 mL scale (capacity, recovery, purity); assay type: binding; details: load 50 mM BisTris pH 6.25, elution 50 mM BisTris pH 8.00 gradient
# Description: Ligand L14 from Example 1 was synthesized directly on Fractogel. The resin was evaluated in 5 mL scale.
# Load buffer: 50 mM BisTris at pH 6.25
# Elution buffer: 50 mM BisTris at pH 8.00 gradient
# Temperature: 15° C. (20° measured by Äkta)
# Ligand L16 from Example 1 was synthesized directly on Fractogel Amino. This resin was evaluated in 5 mL scale.
SMILES,Recovery (%) (hGH [1]; Elution pH 7.25),Recovery of hGH (hGH [1]; Elution pH 7.25) [mg],Recovery (%) (hGH [1]; Elution pH 7.50),Recovery of hGH (hGH [1]; Elution pH 7.50) [mg],Recovery (%) (hGH [1]; Elution pH 8.00),Recovery of hGH (hGH [1]; Elution pH 8.00) [mg],Recovery (hGH [2]) [%]
CC[C@H](C)[C@H](N)C(=O)N[C@@H](Cc1ccccc1)C(=O)N[C@@H](CNC(=O)c1c2c(nc3ccccc13)CCCC2)C(=O)O [L10],61,1.58,81,2.08,89,2.28,
NCCCC[C@H](N)C(=O)N[C@@H](Cc1ccccc1)C(=O)N[C@@H](CNC(=O)c1c2c(nc3ccccc13)CCCC2)C(=O)O [L14],,,,,,,92
CC[C@@H](C)[C@H](N)C(=O)N[C@@H](CCCCN)C(=O)N[C@@H](CNC(=O)c1c(C)nc2ccccn12)C(=O)O [L16],,,,,,,98
